Data: the supplement of paper PMC10849652
The list shows a part of the results.

The chains behind the UniProt entries cited, without tags or fusion partners. Where a name states a change or a piece, a line headed by the entry shows the natural chain unless it says otherwise.
UniProt Q8N183: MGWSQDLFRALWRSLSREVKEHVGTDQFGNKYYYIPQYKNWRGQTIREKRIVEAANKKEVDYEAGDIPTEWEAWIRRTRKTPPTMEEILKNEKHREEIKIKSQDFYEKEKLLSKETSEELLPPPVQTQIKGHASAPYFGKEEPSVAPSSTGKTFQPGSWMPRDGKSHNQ
UniProt Q9BU61: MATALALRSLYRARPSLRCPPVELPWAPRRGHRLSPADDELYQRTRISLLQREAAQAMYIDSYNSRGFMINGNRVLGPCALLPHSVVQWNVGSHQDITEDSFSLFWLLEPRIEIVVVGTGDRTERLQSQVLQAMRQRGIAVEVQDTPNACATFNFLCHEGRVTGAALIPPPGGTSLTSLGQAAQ
UniProt O43678, whole entry, looked up: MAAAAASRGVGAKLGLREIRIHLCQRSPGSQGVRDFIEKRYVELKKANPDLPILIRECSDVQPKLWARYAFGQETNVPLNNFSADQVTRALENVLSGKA
UniProt P51970, whole entry, looked up: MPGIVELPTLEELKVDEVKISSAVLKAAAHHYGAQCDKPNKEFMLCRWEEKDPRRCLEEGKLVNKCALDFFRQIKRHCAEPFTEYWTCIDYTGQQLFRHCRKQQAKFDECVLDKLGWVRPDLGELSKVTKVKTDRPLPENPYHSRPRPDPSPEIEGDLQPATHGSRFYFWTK
UniProt Q86XI2: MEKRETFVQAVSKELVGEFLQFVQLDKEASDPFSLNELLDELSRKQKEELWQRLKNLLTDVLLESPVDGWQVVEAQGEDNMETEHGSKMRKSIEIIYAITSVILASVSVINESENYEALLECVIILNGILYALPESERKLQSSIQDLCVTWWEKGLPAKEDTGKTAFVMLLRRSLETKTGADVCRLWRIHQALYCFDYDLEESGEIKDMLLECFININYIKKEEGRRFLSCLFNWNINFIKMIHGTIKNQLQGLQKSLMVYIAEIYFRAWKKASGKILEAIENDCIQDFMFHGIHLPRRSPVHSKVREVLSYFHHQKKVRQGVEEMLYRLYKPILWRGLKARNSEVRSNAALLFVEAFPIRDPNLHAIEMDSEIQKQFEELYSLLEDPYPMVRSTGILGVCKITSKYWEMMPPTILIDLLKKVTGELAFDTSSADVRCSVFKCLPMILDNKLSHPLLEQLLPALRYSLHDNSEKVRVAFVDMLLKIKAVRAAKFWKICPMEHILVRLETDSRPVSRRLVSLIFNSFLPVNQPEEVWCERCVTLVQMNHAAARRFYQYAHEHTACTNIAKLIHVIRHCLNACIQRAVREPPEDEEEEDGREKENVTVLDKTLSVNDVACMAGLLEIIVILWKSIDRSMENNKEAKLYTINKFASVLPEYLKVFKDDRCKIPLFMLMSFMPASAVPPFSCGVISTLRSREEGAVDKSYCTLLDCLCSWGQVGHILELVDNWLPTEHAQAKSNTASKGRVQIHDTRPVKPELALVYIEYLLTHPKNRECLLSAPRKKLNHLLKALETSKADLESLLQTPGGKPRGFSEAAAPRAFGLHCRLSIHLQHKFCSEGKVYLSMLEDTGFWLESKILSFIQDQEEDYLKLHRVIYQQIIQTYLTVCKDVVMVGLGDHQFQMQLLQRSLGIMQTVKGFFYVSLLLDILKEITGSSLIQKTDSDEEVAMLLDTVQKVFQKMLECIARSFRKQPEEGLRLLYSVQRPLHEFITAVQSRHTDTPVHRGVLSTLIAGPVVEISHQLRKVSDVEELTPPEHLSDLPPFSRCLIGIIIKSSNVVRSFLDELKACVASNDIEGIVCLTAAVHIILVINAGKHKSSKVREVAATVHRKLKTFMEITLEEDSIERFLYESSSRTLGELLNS
UniProt Q86Y39, whole entry, looked up: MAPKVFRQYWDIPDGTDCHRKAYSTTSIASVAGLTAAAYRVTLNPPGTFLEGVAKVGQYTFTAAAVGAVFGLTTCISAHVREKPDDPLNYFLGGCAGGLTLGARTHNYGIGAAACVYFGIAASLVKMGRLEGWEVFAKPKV
UniProt Q13459: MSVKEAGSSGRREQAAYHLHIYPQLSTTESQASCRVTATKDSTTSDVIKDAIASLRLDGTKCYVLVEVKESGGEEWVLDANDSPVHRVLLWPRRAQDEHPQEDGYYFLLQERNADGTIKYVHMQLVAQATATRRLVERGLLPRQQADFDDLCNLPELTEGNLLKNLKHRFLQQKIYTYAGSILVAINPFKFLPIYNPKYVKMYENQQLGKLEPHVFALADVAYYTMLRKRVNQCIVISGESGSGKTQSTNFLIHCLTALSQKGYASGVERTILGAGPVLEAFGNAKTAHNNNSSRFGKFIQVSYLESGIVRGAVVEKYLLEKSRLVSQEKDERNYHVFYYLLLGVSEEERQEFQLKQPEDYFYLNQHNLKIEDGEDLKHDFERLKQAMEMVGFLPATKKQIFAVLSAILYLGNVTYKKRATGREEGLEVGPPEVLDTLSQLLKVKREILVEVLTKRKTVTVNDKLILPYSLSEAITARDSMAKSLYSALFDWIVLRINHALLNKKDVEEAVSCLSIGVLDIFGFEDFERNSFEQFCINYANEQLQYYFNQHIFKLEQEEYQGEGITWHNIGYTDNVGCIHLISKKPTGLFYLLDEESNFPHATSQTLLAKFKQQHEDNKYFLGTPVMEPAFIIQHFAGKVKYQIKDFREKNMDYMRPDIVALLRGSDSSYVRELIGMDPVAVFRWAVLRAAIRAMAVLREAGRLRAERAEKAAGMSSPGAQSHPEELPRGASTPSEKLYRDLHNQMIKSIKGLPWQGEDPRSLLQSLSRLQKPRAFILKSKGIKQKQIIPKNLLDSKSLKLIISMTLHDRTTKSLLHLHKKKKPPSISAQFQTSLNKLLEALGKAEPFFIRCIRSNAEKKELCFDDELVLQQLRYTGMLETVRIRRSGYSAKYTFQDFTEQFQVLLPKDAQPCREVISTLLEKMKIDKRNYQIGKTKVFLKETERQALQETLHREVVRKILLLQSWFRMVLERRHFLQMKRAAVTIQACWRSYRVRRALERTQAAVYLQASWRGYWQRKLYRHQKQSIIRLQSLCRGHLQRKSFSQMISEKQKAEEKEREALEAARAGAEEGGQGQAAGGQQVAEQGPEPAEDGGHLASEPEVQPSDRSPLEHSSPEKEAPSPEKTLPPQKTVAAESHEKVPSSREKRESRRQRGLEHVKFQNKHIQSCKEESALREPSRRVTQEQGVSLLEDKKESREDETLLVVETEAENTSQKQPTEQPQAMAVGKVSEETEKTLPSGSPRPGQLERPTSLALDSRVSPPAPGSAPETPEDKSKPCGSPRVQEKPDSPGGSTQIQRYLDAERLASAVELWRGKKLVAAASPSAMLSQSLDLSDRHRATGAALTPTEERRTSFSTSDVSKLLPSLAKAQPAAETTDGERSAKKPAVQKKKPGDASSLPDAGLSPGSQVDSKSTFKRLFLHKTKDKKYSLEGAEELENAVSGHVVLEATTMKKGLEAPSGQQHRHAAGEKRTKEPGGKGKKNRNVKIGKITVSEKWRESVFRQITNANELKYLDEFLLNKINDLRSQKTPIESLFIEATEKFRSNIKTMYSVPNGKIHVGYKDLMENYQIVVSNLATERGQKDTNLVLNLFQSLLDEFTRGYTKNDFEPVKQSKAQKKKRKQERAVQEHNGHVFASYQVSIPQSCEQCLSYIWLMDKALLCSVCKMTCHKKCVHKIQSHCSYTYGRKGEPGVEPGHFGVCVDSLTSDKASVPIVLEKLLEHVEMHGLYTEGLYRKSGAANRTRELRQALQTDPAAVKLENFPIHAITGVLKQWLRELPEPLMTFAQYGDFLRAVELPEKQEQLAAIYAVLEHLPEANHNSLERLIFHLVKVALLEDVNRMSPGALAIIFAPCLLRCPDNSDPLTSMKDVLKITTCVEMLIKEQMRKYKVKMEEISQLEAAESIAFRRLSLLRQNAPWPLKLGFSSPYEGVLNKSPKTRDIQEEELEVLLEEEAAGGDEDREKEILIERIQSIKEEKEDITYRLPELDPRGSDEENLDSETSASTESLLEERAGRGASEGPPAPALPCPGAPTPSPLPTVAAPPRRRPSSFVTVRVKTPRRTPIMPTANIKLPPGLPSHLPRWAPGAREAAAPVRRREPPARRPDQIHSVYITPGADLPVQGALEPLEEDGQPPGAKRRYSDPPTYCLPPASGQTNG
UniProt Q15843, whole entry, looked up: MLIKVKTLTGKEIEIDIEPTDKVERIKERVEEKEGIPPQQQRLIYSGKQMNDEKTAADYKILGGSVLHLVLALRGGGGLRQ
UniProt Q9UN36: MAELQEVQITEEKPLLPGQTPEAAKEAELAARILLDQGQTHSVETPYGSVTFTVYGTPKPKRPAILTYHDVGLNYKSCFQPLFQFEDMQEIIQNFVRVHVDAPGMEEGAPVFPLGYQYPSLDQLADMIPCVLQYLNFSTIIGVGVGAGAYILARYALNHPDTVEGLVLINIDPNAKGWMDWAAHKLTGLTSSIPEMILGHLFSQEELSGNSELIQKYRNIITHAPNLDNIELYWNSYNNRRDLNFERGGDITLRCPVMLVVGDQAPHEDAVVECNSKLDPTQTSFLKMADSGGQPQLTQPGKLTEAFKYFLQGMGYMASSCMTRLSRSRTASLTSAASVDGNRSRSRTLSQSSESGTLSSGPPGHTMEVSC
UniProt Q16718, whole entry, looked up: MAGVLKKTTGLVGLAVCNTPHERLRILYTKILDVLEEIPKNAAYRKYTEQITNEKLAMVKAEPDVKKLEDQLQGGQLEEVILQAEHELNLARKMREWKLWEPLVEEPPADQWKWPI
UniProt Q147X3: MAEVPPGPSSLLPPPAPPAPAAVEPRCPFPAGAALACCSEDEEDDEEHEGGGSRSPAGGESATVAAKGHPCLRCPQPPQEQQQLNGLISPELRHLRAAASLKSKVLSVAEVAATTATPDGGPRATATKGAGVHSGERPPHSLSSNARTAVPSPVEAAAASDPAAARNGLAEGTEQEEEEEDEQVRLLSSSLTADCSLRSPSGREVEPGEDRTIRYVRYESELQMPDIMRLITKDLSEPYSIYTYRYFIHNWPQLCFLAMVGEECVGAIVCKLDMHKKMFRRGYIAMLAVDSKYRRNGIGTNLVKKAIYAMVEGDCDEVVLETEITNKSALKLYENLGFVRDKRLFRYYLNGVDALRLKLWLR
UniProt Q9NVZ3: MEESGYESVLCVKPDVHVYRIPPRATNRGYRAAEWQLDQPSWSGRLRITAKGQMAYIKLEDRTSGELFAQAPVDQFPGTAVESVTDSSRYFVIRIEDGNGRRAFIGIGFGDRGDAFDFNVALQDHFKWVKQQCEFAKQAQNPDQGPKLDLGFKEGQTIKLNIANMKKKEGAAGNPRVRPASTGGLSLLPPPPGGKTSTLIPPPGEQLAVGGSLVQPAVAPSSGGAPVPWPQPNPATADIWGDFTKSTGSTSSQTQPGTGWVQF
UniProt Q9P0J0, whole entry, looked up: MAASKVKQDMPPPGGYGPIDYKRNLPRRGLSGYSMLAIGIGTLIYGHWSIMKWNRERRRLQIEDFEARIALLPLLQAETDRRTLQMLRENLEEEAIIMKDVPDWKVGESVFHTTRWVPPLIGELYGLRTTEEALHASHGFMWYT
UniProt Q9UJ70, whole entry, looked up: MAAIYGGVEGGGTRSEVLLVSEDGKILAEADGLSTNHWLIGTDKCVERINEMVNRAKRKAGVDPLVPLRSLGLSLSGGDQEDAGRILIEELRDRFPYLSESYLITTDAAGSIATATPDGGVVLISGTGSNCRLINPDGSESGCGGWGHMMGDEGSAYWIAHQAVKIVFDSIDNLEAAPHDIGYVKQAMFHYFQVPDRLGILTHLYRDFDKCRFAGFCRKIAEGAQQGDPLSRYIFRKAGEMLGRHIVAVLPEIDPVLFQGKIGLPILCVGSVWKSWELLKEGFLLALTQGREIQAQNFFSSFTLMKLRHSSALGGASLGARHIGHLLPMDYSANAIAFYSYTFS
UniProt Q99733: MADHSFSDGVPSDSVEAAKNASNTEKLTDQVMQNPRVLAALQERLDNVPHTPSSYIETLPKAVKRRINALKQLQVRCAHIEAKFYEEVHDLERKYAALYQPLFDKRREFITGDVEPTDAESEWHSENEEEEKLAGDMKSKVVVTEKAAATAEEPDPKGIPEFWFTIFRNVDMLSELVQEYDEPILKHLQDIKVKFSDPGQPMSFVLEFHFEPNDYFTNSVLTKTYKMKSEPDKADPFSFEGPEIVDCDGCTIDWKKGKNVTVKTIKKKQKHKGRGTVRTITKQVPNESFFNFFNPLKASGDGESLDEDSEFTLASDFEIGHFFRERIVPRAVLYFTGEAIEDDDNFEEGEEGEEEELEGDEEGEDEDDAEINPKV

Assays:
Test in all cases: log2 fold change, soluble protein after heating vs DMSO (PISA); higher = thermal stabilisation; K562 cells, 10 uM, 30 min; active = over 0.2 and 3.5 SD of the protein, either way, in both replicates (recomputed)
[1] = compound: CC1=C(C=C(C=C1)NC(=O)C2=CC(=CC=C2)C(C)(C)C#N)NC3=CC4=C(C=C3)N=CN(C4=O)C
Summary of the method: (§1)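 K562 cells (2×10^6 cells/mL) were treated with 10 μM compound for 30 min, and aliquots were heated for 3 min over 48°C-58°C. Pooled aliquots were extracted in PBS with 0.5% NP-40 at 4°C, and the supernatant after 21,000xg for 90 min was measured by TMTpro 16plex LC-MS/MS with channel sums equalised. Reported thermal stability, relative to control samples and from duplicates, is a log2 fold change.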

[2] = compound: CC1=C(C=C(C=C1)NC(=O)C2=CC(=CC=C2)N(C)C)NC(=O)C3=CC=C(C=C3)O
Summary of the method: as §1

[3] = compound: CC1=CC=C(C=C1)SC2=C3C=C(SC3=CN=C2)C(=O)N
Summary of the method: as §1

[4] = compound: CC1=NC(=CC=C1)C2=C(N=C(N2)C(C)(C)C)C3=CC4=NC=CN=C4C=C3
Summary of the method: as §1

[5] = compound: CCCCN(Cc1ccc(C(=O)NO)cc1)C(=O)Nc1ccccc1 [Nexturastat A]
Summary of the method: as §1

[6] = compound: CCCS(=O)(=O)Nc1ccc(F)c(C(=O)c2c[nH]c3ncc(-c4ccc(Cl)cc4)cc23)c1F [vemurafenib]
Summary of the method: as §1

[7] = compound: CCCS(=O)(=O)Nc1ccc(F)c(C(=O)c2c[nH]c3ncc(Cl)cc23)c1F
Summary of the method: as §1

[8] = compound: CCCc1cc(C)[nH]c(=O)c1CNC(=O)c1cc(-c2ccnc(N3CCN(C)CC3)c2)cc2c1cnn2C(C)C
Summary of the method: as §1

[9] = compound: CCN(CC)Cc1ccc2cc(COC(=O)Nc3ccc(C(=O)NO)cc3)ccc2c1 [givinostat]
Summary of the method: as §1

[10] = compound: CCN(CCCOc1ccc2c(Nc3cc(CC(=O)Nc4cccc(F)c4)[nH]n3)ncnc2c1)CCOP(=O)(O)O [barasertib]
Summary of the method: as §1

[11] = compound: CC[C@@H]1C(=O)N(C)c2cnc(Nc3ccc(C(=O)NC4CCN(C)CC4)cc3OC)nc2N1C1CCCC1
Summary of the method: as §1

[12] = compound: CC[C@@H]1C(=O)N(C)c2cnc(Nc3ccc(C(=O)N[C@H]4CC[C@H](N5CCN(CC6CC6)CC5)CC4)cc3OC)nc2N1C(C)C [volasertib]
Summary of the method: as §1

[13] = compound: CC[C@H](C)N1C=C(C2=C(C=C(C=C21)C3=CN=C(C=C3)N4CCNCC4)C(=O)NCC5=C(C=C(NC5=O)C)C)C
Summary of the method: as §1

[14] = compound: CC[C@H](C)[C@@H](C(=O)N[C@@H]([C@@H](C)O)C(=O)N[C@@H](CC(C)C)C(=O)[C@]1(CO1)C)NC(=O)[C@H]([C@@H](C)CC)N(C)C(=O)C [epoxomicin]
Summary of the method: as §1

[15] = compound: CCn1c(C(=O)N(C2CC2)C2CC2)cc2c3c(ncn3C)c(Nc3cc(C)n(C)n3)nc21
Summary of the method: as §1

[16] = compound: CCn1cc(-c2ccnc3[nH]c(-c4cccc(CN(C)C)c4)cc23)c(-c2ccc(NC(=O)N(C)C)cc2)n1
Summary of the method: as §1

[17] = compound: CN(C)CC(=O)Nc1ccc2[nH]c(=O)c3ccccc3c2c1
Summary of the method: as §1

[18] = compound: CN(CCOC1=CC=C(C=C1)C[C@H]2C(=O)NC(=O)S2)C3=CC=CC=N3 (racemic) [rosiglitazone]
Summary of the method: as §1

[19] = compound: CN1C2=C(C3=C1C(=O)N(N=C3)CC4=CC(=CC=C4)N)SC(=C2)S(=O)C
Summary of the method: as §1

[20] = compound: CN1CCC(CNc2ccc3ncc(-c4cccc(OC(F)(F)F)c4)n3n2)CC1
Summary of the method: as §1

Measured: log2 fold change

NDUFAF2 (UniProt Q8N183)
inactive: [1] -0.031 | [2] 0.006 | [3] 0.039 | [4] 0.051 | [5] -0.086 | [6] -0.009 | [7] 0.027 | [8] -0.043 | [9] 0.033 | [10] -0.012 | [11] -0.019 | [12] 0.036 | [13] -0.043 | [14] 0.027 | [15] -0.007 | [16] 0 | [17] 0.016 | [18] 0.002 | [19] -0.034 | [20] -0.058

NDUFAF3 (UniProt Q9BU61)
inactive: [1] -0.001 | [2] -0.036 | [3] 0.078 | [4] 0.07 | [5] -0.123 | [6] 0.035 | [7] 0.062 | [8] -0.033 | [9] 0.003 | [10] 0.051 | [11] -0.011 | [12] -0.008 | [13] 0 | [14] 0.006 | [15] 0.012 | [16] -0.049 | [17] 0.198 | [18] 0.011 | [19] -0.1 | [20] -0.157

NDUFA2 (UniProt O43678)
inactive: [1] 0.021 | [2] -0.108 | [3] 0.017 | [4] -0.012 | [5] -0.046 | [6] -0.015 | [7] 0.024 | [8] 0.178 | [9] -0.114 | [10] -0.003 | [11] -0.012 | [12] -0.046 | [13] 0.037 | [14] 0.076 | [15] -0.044 | [16] -0.05 | [17] 0.022 | [18] 0.033 | [19] -0.02 | [20] 0.001

NDUFA8 (UniProt P51970)
inactive: [1] -0.008 | [2] 0.033 | [3] 0.158 | [4] 0.027 | [5] -0.04 | [6] -0.015 | [7] -0.008 | [8] -0.08 | [9] -0.05 | [10] 0.022 | [11] 0.003 | [12] -0.009 | [13] -0.002 | [14] 0.031 | [15] 0.025 | [16] 0.001 | [17] -0.01 | [18] 0.001 | [19] 0 | [20] -0.09

NCAPG2 isoform 2 (UniProt Q86XI2)
inactive: [1] 0.083 | [2] -0.009 | [3] -0.061 | [4] 0.029 | [5] 0.239 | [6] -0.037 | [7] 0.017 | [8] 0.025 | [9] 0.108 | [10] -0.007 | [11] -0.125 | [12] -0.21 | [13] -0.038 | [14] -0.018 | [15] -0.127 | [16] -0.218 | [17] -0.043 | [18] 0.074 | [19] 0.132 | [20] -0.145

NDUFA11 (UniProt Q86Y39)
inactive: [1] -0.006 | [2] 0.021 | [3] 0.075 | [4] 0.008 | [5] -0.048 | [6] -0.025 | [7] 0 | [8] -0.109 | [9] 0.062 | [10] -0.031 | [11] 0.049 | [12] 0.066 | [13] -0.035 | [14] -0.051 | [15] 0.005 | [16] -0.031 | [17] 0.015 | [18] -0.032 | [19] 0.006 | [20] 0.028

MYO9B (UniProt Q13459)
inactive: [1] -0.065 | [2] -0.006 | [3] 0.019 | [4] -0.059 | [5] 0.212 | [6] -0.009 | [7] -0.026 | [8] 0.077 | [9] 0.017 | [10] -0.04 | [11] 0.127 | [12] -0.066 | [13] 0.078 | [14] -0.011 | [15] -0.034 | [16] 0.033 | [17] 0.056 | [18] 0 | [19] 0.082 | [20] -0.047

NEDD8 (UniProt Q15843)
inactive: [1] -0.033 | [2] -0.061 | [3] -0.006 | [4] 0.032 | [5] -0.029 | [6] 0 | [7] -0.056 | [8] -0.004 | [9] 0.026 | [10] 0.043 | [11] 0.086 | [12] 0.062 | [13] -0.015 | [14] 0.211 | [15] -0.054 | [16] 0.317 | [17] 0.072 | [18] 0.013 | [19] -0.027 | [20] 0.115

NDRG2 (UniProt Q9UN36)
inactive: [1] 0.043 | [2] 0.001 | [3] 0.026 | [4] 0.019 | [5] -0.035 | [6] 0.026 | [7] 0.052 | [8] 0.019 | [9] 0.01 | [10] -0.015 | [11] -0.029 | [12] -0.11 | [13] 0.024 | [14] 0.064 | [15] 0.001 | [16] -0.041 | [17] 0.03 | [18] 0.026 | [19] -0.046 | [20] 0.115

NDUFA5 (UniProt Q16718)
inactive: [1] -0.021 | [2] -0.048 | [3] 0.088 | [4] 0.009 | [5] 0.088 | [6] 0.009 | [7] 0.056 | [8] -0.076 | [9] 0.004 | [10] 0.037 | [11] 0.041 | [12] -0.038 | [13] -0.028 | [14] 0.144 | [15] -0.024 | [16] -0.041 | [17] -0.023 | [18] -0.022 | [19] -0.051 | [20] 0.032

Reprinted at random: 2 records from the list.
NDRG2 (UniProt Q9UN36)
inactive: [1] 0.043 | [2] 0.001 | [3] 0.026 | [4] 0.019 | [5] -0.035 | [6] 0.026 | [7] 0.052 | [8] 0.019 | [9] 0.01 | [10] -0.015 | [11] -0.029 | [12] -0.11 | [13] 0.024 | [14] 0.064 | [15] 0.001 | [16] -0.041 | [17] 0.03 | [18] 0.026 | [19] -0.046 | [20] 0.115

NDUFA11 (UniProt Q86Y39)
inactive: [1] -0.006 | [2] 0.021 | [3] 0.075 | [4] 0.008 | [5] -0.048 | [6] -0.025 | [7] 0 | [8] -0.109 | [9] 0.062 | [10] -0.031 | [11] 0.049 | [12] 0.066 | [13] -0.035 | [14] -0.051 | [15] 0.005 | [16] -0.031 | [17] 0.015 | [18] -0.032 | [19] 0.006 | [20] 0.028

(listing goes on)

NAA30 (UniProt Q147X3)
inactive: [1] 0.081 | [2] 0.01 | [3] 0.009 | [4] 0.03 | [5] -0.002 | [6] 0.035 | [7] 0.003 | [8] -0.022 | [9] 0.035 | [10] 0.084 | [11] -0.036 | [12] -0.007 | [13] 0.036 | [14] -0.119 | [15] -0.017 | [16] -0.291 | [17] -0.049 | [18] -0.059 | [19] 0.001 | [20] 0.099

NECAP2 (UniProt Q9NVZ3)
inactive: [1] 0.073 | [2] -0.019 | [3] 0.056 | [4] 0.019 | [5] -0.066 | [6] -0.002 | [7] 0.042 | [8] -0.009 | [9] 0.039 | [10] 0.004 | [11] -0.048 | [12] -0.094 | [13] 0.053 | [14] 0.037 | [15] 0.007 | [16] -0.018 | [17] 0.036 | [18] 0.028 | [19] -0.083 | [20] -0.017

NDUFA13 (UniProt Q9P0J0)
inactive: [1] 0.05 | [2] -0.027 | [3] 0.053 | [4] 0.068 | [5] -0.047 | [6] -0.081 | [7] 0.058 | [8] -0.007 | [9] 0.006 | [10] -0.006 | [11] -0.063 | [12] -0.025 | [13] -0.001 | [14] 0.015 | [15] 0.047 | [16] -0.01 | [17] -0.016 | [18] 0.019 | [19] -0.07 | [20] -0.093

NAGK isoform 2 (UniProt Q9UJ70)
inactive: [1] 0.037 | [2] 0.027 | [3] 0.005 | [4] -0.011 | [5] 0.001 | [6] -0.049 | [7] -0.004 | [8] -0.021 | [9] 0.01 | [10] -0.022 | [11] 0.056 | [12] 0.038 | [13] 0.014 | [14] -0.084 | [15] -0.009 | [16] 0.035 | [17] 0.031 | [18] 0.028 | [19] -0.005 | [20] -0.055

NAT10 (UniProt Q9H0A0)
inactive: [1] 0.059 | [2] 0 | [3] -0.175 | [4] -0.132 | [5] 0.315 | [6] 0.035 | [7] -0.137 | [8] 0.155 | [9] 0.211 | [10] -0.012 | [11] 0.113 | [12] 0.337 | [13] 0.065 | [14] -0.167 | [15] -0.098 | [16] 0.04 | [17] -0.023 | [18] -0.109 | [19] 0.147 | [20] 0.129

NAP1L4 isoform 2 (UniProt Q99733)
inactive: [1] -0.007 | [2] -0.009 | [3] -0.034 | [4] 0 | [5] -0.018 | [6] 0.015 | [7] 0.065 | [8] -0.004 | [9] -0.009 | [10] 0.023 | [11] -0.068 | [12] -0.185 | [13] 0.035 | [14] 0.085 | [15] 0.01 | [16] 0.008 | [17] 0.007 | [18] 0.008 | [19] -0.034 | [20] 0.054
